# Laboratory results from the supplement of paper PMC8728848.
# The list shows a part of the results.
# Tests used:
# Assay in all cases: glycan array binding signal (z-score within array); higher = stronger binding
# Conditions in all cases: glycan notation: IUPAC condensed, linker removed
# [1] = target: Fuc(a1-3)[Gal3S(b1-4)]GlcNAc
# How it was run: (§1)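 Glycan array data came from 3228 arrays in the Consortium for Functional Glycomics database, and only arrays with an available protein sequence were kept. Glycan names were put into IUPAC-condensed notation, and columns mapping to the same glycan were averaged. The binding signal is a within-array Z-score, averaged across arrays of one protein sequence run at different concentrations or buffers and across linkers. A negative Z-score can be read as non-binding.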
# [2] = target: Fuc(a1-3)[Gal3S(b1-4)]GlcNAc6S
# How it was run: as §1
# [3] = target: Fuc(a1-3)[GalNAc(b1-4)]GlcNAc
# How it was run: as §1
# [4] = target: Fuc(a1-3)[GalNAc(b1-4)]GlcNAc6S
# How it was run: as §1
# Fuc(a1-4)GlcNAc = target: Fuc(a1-4)GlcNAc
# How it was run: as §1
# Fuc(b1-3)GlcNAc = target: Fuc(b1-3)GlcNAc
# How it was run: as §1
# Gal(a1-2)Gal = target: Gal(a1-2)Gal
# How it was run: as §1
# Gal(a1-3)Gal = target: Gal(a1-3)Gal
# How it was run: as §1
# Gal(a1-3)Gal(b1-3)GlcNAc = target: Gal(a1-3)Gal(b1-3)GlcNAc
# How it was run: as §1
# [5] = target: Gal(a1-3)Gal(b1-3)GlcNAc(b1-2)Man
# How it was run: as §1
# [6] = target: Gal(a1-3)Gal(b1-3)GlcNAc(b1-2)Man(a1-3)[Gal(a1-3)Gal(b1-3)GlcNAc(b1-2)Man(a1-6)]Man(b1-4)GlcNAc(b1-4)GlcNAc
# How it was run: as §1
# [7] = target: Gal(a1-3)Gal(b1-3)GlcNAc(b1-3)GalNAc
# How it was run: as §1
# [8] = target: Gal(a1-3)Gal(b1-3)GlcNAc(b1-6)GalNAc
# How it was run: as §1
# [9] = target: Gal(a1-3)Gal(b1-3)[Fuc(a1-4)]GlcNAc(b1-2)Man(a1-3)[Gal(a1-3)Gal(b1-3)[Fuc(a1-4)]GlcNAc(b1-2)Man(a1-6)]Man(b1-4)GlcNAc(b1-4)GlcNAc
# How it was run: as §1
# Gal(a1-3)Gal(b1-4)Glc = target: Gal(a1-3)Gal(b1-4)Glc
# How it was run: as §1
# Gal(a1-3)Gal(b1-4)GlcNAc = target: Gal(a1-3)Gal(b1-4)GlcNAc
# How it was run: as §1
# [10] = target: Gal(a1-3)Gal(b1-4)GlcNAc(b1-2)Man
# How it was run: as §1
# [11] = target: Gal(a1-3)Gal(b1-4)GlcNAc(b1-2)Man(a1-3)[Gal(a1-3)Gal(b1-4)GlcNAc(b1-2)Man(a1-6)]Man(b1-4)GlcNAc(b1-4)GlcNAc
# How it was run: as §1
# [12] = target: Gal(a1-3)Gal(b1-4)GlcNAc(b1-3)GalNAc
# How it was run: as §1
# [13] = target: Gal(a1-3)Gal(b1-4)GlcNAc(b1-6)GalNAc
# How it was run: as §1
# [14] = target: Gal(a1-3)Gal(b1-4)[Fuc(a1-3)]GlcNAc
# How it was run: as §1
# [15] = target: Gal(a1-3)Gal(b1-4)[Fuc(a1-3)]GlcNAc(b1-2)Man(a1-3)[Gal(a1-3)Gal(b1-4)[Fuc(a1-3)]GlcNAc(b1-2)Man(a1-6)]Man(b1-4)GlcNAc(b1-4)GlcNAc
# How it was run: as §1
# Gal(a1-3)GalNAc = target: Gal(a1-3)GalNAc
# How it was run: as §1
# [16] = target: Gal(a1-3)[Gal(a1-4)]Gal(b1-4)GlcNAc
# How it was run: as §1
# [17] = target: Gal(a1-4)Gal(b1-3)GlcNAc(b1-2)Man(a1-3)[Gal(a1-4)Gal(b1-3)GlcNAc(b1-2)Man(a1-6)]Man(b1-4)GlcNAc(b1-4)GlcNAc
# How it was run: as §1
# Gal(a1-4)Gal(b1-4)Glc = target: Gal(a1-4)Gal(b1-4)Glc
# How it was run: as §1
# Gal(a1-4)Gal(b1-4)GlcNAc = target: Gal(a1-4)Gal(b1-4)GlcNAc
# How it was run: as §1
# [18] = target: Gal(a1-4)Gal(b1-4)GlcNAc(b1-2)Man(a1-3)[Gal(a1-4)Gal(b1-4)GlcNAc(b1-2)Man(a1-6)]Man(b1-4)GlcNAc(b1-4)GlcNAc
# How it was run: as §1
# [19] = target: Gal(a1-4)Gal(b1-4)GlcNAc(b1-3)Gal(b1-4)Glc
# How it was run: as §1
# Gal(a1-4)GlcNAc = target: Gal(a1-4)GlcNAc
# How it was run: as §1
# Gal(a1-6)Glc = target: Gal(a1-6)Glc
# How it was run: as §1
# Gal(b1-2)Gal = target: Gal(b1-2)Gal
# How it was run: as §1
# Gal(b1-3)Gal = target: Gal(b1-3)Gal
# How it was run: as §1
# Gal(b1-3)Gal(b1-4)GlcNAc = target: Gal(b1-3)Gal(b1-4)GlcNAc
# How it was run: as §1
# [20] = target: Gal(b1-3)Gal(b1-4)GlcNAc(b1-2)Man(a1-3)[Gal(b1-3)Gal(b1-4)GlcNAc(b1-2)Man(a1-6)]Man(b1-4)GlcNAc(b1-4)GlcNAc
# How it was run: as §1
# Gal(b1-3)GalNAc = target: Gal(b1-3)GalNAc
# How it was run: as §1
# [21] = target: Gal(b1-3)GalNAc(a1-3)[Fuc(a1-2)]Gal(b1-4)Glc
# How it was run: as §1
# [22] = target: Gal(b1-3)GalNAc(a1-3)[Fuc(a1-2)]Gal(b1-4)GlcNAc
# How it was run: as §1
binder,measurement,setting,value
KISKRILTGKK [NK11 (Sus scrofa)],glycan array binding signal (z-score),[1],0.048
same,glycan array binding signal (z-score),[2],1.22
same,glycan array binding signal (z-score),[3],-0.401
same,glycan array binding signal (z-score),[4],0.024
same,glycan array binding signal (z-score),Fuc(a1-4)GlcNAc,-0.161
same,glycan array binding signal (z-score),Fuc(b1-3)GlcNAc,-0.52
same,glycan array binding signal (z-score),Gal(a1-2)Gal,-0.462
same,glycan array binding signal (z-score),Gal(a1-3)Gal,0.306
same,glycan array binding signal (z-score),Gal(a1-3)Gal(b1-3)GlcNAc,0.315
same,glycan array binding signal (z-score),[5],0.658
same,glycan array binding signal (z-score),[6],0.768
same,glycan array binding signal (z-score),[7],-0.454
same,glycan array binding signal (z-score),[8],-0.365
same,glycan array binding signal (z-score),[9],-0.06
same,glycan array binding signal (z-score),Gal(a1-3)Gal(b1-4)Glc,-0.303
same,glycan array binding signal (z-score),Gal(a1-3)Gal(b1-4)GlcNAc,-0.302
same,glycan array binding signal (z-score),[10],-0.942
same,glycan array binding signal (z-score),[11],0.586
same,glycan array binding signal (z-score),[12],-0.218
same,glycan array binding signal (z-score),[13],-0.147
same,glycan array binding signal (z-score),[14],-0.402
same,glycan array binding signal (z-score),[15],0.809
same,glycan array binding signal (z-score),Gal(a1-3)GalNAc,-0.879
same,glycan array binding signal (z-score),[16],0.293
same,glycan array binding signal (z-score),[17],0.312
same,glycan array binding signal (z-score),Gal(a1-4)Gal(b1-4)Glc,-0.486
same,glycan array binding signal (z-score),Gal(a1-4)Gal(b1-4)GlcNAc,-0.175
same,glycan array binding signal (z-score),[18],1.4
same,glycan array binding signal (z-score),[19],-0.642
same,glycan array binding signal (z-score),Gal(a1-4)GlcNAc,-0.19
same,glycan array binding signal (z-score),Gal(a1-6)Glc,-0.674
same,glycan array binding signal (z-score),Gal(b1-2)Gal,-0.415
same,glycan array binding signal (z-score),Gal(b1-3)Gal,0.729
same,glycan array binding signal (z-score),Gal(b1-3)Gal(b1-4)GlcNAc,-0.706
same,glycan array binding signal (z-score),[20],-0.129
same,glycan array binding signal (z-score),Gal(b1-3)GalNAc,-0.322
same,glycan array binding signal (z-score),[21],-0.675
same,glycan array binding signal (z-score),[22],-0.444

# 2 entries drawn at random from the list so far:
binder,measurement,setting,value
KISKRILTGKK [NK11 (Sus scrofa)],glycan array binding signal (z-score),Gal(a1-2)Gal,-0.462
same,glycan array binding signal (z-score),[3],-0.401
